# The supplement of paper PMC10060354, “Discovery of a small molecule ligand of FRS2 that inhibits invasion and tumor growth” (Cellular Oncology, 2022)
# The chains behind the UniProt entries cited, without tags or fusion partners. Where a name states a change or a piece, a line headed by the entry shows the natural chain unless it says otherwise.
# UniProt P51151: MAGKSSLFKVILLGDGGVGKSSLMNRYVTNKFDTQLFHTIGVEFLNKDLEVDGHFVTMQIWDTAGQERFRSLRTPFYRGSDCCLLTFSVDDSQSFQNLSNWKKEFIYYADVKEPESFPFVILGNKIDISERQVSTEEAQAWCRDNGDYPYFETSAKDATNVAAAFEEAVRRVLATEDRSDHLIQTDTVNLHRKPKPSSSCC
# UniProt P14550: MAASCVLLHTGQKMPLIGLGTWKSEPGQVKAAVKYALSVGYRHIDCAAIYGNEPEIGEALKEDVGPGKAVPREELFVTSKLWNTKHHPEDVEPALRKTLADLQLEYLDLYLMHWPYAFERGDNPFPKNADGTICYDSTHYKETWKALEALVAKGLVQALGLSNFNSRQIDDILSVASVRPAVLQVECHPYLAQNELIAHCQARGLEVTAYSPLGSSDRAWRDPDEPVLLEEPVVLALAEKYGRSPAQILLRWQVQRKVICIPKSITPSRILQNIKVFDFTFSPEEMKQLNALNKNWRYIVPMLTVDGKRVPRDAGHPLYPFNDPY
# UniProt Q96GW9: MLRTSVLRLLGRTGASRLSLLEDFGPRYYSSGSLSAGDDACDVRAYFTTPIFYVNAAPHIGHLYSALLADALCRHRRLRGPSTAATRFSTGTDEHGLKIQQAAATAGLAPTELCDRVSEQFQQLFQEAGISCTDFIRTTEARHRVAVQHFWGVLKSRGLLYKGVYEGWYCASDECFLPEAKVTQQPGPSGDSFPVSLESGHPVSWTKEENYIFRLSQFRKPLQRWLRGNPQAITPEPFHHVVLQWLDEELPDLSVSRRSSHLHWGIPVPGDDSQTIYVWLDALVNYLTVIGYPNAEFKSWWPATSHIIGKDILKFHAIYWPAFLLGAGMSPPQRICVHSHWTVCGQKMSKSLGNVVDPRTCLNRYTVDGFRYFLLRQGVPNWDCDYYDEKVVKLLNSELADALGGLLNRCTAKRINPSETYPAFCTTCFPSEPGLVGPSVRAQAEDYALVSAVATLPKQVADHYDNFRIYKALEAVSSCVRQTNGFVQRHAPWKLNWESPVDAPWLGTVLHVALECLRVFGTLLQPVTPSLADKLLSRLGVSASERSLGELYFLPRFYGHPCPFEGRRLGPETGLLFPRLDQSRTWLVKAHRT
# UniProt O14981: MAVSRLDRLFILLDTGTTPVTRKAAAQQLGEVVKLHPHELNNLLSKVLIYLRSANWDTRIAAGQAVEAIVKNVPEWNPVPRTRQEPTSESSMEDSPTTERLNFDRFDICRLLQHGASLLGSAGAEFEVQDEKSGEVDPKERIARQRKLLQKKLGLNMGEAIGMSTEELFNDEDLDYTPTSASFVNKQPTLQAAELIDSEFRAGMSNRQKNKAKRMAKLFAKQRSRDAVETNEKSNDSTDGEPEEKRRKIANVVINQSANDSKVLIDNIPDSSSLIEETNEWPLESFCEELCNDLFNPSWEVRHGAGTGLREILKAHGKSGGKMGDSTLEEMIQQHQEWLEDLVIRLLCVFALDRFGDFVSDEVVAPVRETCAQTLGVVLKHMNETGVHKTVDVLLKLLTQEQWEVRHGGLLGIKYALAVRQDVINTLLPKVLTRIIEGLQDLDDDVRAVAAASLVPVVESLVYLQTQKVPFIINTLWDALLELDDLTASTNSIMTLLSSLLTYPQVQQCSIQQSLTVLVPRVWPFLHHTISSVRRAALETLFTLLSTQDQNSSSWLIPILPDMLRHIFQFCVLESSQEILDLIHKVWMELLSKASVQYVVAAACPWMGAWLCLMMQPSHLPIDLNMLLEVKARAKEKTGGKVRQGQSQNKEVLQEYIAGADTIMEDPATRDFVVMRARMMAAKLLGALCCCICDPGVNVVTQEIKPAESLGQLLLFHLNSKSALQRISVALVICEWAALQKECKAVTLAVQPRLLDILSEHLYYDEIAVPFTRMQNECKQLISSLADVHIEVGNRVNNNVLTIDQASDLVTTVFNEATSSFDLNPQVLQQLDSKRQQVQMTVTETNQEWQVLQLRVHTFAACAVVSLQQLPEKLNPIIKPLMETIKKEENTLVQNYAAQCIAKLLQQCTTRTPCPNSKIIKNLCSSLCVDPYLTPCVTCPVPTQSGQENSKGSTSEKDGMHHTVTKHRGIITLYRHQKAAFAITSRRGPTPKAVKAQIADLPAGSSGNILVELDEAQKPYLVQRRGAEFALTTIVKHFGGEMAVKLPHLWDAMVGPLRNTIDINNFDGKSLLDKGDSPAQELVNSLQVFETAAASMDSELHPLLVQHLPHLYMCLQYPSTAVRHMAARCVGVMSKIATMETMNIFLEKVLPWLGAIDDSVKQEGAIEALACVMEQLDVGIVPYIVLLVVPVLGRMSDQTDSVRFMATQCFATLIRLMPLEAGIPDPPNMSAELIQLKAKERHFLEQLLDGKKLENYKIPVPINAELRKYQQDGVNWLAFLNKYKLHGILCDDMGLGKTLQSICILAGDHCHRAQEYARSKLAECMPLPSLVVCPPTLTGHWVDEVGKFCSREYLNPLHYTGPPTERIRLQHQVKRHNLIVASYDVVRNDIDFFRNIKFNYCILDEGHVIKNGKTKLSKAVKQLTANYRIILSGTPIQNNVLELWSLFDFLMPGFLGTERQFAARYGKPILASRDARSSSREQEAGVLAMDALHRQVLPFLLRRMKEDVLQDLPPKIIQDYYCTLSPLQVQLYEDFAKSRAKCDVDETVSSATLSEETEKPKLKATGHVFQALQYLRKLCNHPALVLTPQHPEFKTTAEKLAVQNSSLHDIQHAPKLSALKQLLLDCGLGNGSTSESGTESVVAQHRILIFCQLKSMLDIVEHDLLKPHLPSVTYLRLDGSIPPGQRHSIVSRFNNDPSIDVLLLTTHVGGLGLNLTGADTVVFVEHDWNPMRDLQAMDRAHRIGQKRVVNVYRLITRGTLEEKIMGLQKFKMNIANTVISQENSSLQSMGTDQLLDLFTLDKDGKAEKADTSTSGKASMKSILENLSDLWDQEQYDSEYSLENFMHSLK
# UniProt O75334: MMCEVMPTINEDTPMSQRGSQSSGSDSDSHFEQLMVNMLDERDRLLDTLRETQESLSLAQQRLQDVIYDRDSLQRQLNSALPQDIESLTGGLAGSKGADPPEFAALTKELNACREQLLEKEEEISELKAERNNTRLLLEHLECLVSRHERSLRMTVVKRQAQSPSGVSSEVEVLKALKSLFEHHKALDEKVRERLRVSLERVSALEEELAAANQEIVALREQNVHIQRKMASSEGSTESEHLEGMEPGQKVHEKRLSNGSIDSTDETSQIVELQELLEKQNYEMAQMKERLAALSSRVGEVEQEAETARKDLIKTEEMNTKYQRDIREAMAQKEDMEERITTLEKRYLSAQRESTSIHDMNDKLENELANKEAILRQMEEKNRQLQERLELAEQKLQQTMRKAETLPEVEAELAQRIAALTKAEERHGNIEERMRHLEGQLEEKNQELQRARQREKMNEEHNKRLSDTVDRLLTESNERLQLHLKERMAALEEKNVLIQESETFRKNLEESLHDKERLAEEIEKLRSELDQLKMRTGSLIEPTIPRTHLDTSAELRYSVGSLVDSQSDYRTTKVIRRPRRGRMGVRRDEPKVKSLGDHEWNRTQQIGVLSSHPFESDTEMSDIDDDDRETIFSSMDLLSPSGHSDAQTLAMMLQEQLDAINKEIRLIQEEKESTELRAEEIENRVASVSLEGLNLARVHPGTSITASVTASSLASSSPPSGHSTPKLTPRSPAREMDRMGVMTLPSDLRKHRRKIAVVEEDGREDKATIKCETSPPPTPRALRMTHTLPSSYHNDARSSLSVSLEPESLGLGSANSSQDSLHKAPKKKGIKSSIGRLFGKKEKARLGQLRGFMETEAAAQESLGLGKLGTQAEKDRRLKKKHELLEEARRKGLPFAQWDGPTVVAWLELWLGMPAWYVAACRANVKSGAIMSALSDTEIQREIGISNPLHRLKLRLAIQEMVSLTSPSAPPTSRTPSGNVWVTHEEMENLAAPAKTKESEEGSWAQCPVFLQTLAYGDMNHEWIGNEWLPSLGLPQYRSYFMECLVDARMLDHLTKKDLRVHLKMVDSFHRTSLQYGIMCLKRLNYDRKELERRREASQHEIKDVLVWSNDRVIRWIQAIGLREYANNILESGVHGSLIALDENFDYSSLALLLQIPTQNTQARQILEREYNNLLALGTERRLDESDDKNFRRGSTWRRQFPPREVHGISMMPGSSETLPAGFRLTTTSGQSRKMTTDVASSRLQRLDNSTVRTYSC
# UniProt Q8N697: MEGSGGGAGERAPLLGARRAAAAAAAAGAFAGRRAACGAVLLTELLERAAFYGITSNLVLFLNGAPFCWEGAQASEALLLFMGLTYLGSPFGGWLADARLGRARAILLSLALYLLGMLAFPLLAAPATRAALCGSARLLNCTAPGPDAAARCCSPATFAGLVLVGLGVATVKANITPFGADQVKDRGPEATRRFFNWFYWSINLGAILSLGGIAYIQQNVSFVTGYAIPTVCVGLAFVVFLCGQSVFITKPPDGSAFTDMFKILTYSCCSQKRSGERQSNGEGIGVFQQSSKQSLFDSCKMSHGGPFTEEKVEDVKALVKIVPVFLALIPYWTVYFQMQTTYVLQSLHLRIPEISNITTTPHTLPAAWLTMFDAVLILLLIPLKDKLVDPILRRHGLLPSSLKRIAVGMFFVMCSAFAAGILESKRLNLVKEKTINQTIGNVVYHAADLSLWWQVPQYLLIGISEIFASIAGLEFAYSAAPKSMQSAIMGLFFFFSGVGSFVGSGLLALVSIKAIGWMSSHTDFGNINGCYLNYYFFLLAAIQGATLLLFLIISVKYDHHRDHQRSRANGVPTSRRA
# UniProt O95772: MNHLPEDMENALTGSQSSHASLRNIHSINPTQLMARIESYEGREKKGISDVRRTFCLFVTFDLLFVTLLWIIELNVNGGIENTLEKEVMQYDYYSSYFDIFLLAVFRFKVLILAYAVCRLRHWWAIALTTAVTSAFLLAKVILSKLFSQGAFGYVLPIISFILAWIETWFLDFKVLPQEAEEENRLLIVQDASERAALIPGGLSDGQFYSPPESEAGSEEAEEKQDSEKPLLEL
# UniProt Q96IZ6: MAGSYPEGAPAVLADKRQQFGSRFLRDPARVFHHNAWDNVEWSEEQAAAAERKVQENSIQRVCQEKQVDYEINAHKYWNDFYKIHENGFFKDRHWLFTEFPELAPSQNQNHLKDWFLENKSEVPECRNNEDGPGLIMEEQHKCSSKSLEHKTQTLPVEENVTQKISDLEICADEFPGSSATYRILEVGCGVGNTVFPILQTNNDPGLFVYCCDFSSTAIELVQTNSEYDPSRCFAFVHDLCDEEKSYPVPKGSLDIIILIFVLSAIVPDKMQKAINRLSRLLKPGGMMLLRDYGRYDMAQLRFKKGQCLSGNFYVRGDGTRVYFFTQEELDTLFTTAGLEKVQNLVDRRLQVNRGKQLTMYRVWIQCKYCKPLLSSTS
# UniProt O43795: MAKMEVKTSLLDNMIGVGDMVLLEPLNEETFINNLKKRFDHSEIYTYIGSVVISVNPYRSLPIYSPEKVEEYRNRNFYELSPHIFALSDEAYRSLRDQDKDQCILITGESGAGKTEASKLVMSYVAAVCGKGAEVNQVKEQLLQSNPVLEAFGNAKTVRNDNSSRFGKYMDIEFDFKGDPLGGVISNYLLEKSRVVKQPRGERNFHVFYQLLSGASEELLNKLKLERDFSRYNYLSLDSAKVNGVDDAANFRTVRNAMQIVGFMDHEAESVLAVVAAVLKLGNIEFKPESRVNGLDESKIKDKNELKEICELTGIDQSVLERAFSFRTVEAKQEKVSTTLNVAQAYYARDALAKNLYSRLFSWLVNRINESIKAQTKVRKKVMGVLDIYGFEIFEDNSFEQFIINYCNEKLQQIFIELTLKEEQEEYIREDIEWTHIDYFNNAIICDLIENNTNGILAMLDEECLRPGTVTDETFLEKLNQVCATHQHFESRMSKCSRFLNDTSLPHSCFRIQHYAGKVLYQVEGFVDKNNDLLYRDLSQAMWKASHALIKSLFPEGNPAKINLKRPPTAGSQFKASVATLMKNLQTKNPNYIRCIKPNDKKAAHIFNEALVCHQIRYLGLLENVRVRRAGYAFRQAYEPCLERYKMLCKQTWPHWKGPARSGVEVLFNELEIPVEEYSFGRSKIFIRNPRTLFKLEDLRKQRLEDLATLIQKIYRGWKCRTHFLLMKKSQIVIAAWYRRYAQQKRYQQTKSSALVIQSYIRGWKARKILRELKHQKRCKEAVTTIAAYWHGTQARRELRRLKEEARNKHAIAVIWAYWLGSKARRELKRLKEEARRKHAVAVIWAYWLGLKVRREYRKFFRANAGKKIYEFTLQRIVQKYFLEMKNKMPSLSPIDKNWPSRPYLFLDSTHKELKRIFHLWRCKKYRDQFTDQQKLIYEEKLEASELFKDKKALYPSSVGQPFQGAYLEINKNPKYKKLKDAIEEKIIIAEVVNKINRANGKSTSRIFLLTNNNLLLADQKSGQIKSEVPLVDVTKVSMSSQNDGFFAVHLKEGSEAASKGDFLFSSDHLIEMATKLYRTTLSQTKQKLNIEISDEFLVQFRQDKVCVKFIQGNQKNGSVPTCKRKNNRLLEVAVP
# Single values are uncertain, as repeats are few or missing.
# Compound: [O-][N+](C(C1=C(C(O)=C2)NC(C(C=C3)=CC=C3Cl)C4C1C=CC4)=C2Cl)=O
# Assay: melting temperature shift (compound 7 minus DMSO); higher = compound stabilises the protein
# Conditions: 10 µM
# Method: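 Thermal proteome profiling (TMT mass spectrometry) in intact DAOY medulloblastoma cells or DAOY lysates treated with 10 µM compound 7 or DMSO, heated at 10 temperatures from 40.5 to 73.8 °C for 3 min. Melting curves were fitted with the Bioconductor TPP package, and the melting point difference between compound and vehicle is reported per protein (single curve per condition).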
# [1] = system: DAOY cell lysate, treatment time: 20 min, 4 °C
# [2] = system: intact DAOY cells, treatment time: 90 min, 37 °C
Target,melting temperature shift [1] [°C],melting temperature shift [2] [°C]
ATAD3A (UniProt Q9NVI7),0.045,-0.803
UniProt Q86SJ2,0.681,0.915
UniProt Q9Y664,-0.613,–
SRXN1 (UniProt Q9BYN0),-0.26,–
ARMC1 (UniProt Q9NVT9),-0.656,0.139
TP53I3 (UniProt Q53FA7),0.478,2.64
EIF3J (UniProt O75822),-0.27,0.179
UniProt Q12791,1.42,-0.922
UniProt Q9P0V9,-0.643,0.289
UCK2 (UniProt Q9BZX2),-0.529,-1.1
UniProt Q9Y5J9,-4.52,–
KIF21A (UniProt Q7Z4S6),-1.08,1.38
RAB9A (UniProt P51151),0.649,-2
TNPO1 (UniProt Q92973),-0.567,-0.601
NDC1 (UniProt Q9BTX1),1.43,-0.591
UHRF1BP1 (UniProt Q6BDS2),-0.0859,-1.06
UniProt Q9NWB1,–,-0.701
PMM1 (UniProt Q92871),-0.404,0.454
UniProt Q8NHW5,–,1.28
ACTG1 (UniProt P63261),1.67,1.09
UniProt Q53HL2,0.791,1.23
ATG7 (UniProt O95352),-0.312,-0.908
PVR (UniProt P15151),3.6,–
HSCB (UniProt Q8IWL3),0.148,-1.85

Target,melting temperature shift [1] [°C],melting temperature shift [2] [°C]
CCDC186 (UniProt Q7Z3E2),-1.25,–
EXOC3 (UniProt O60645),0.272,-0.512
CNOT10 (UniProt Q9H9A5),-0.569,0.0548
UniProt P49448,–,-0.578
PTPRJ (UniProt Q12913),1.55,-0.399
FAM134A (UniProt Q8NC44),1.43,–
GOLGA3 (UniProt Q08378),-0.258,0.543
AKR1A1 (UniProt P14550),-0.804,0.453
TXLNG (UniProt Q9NUQ3),-0.256,0.294
LCMT1 (UniProt Q9UIC8),-0.454,-0.524
SUPT6H (UniProt Q7KZ85),-0.24,-0.231
MMAB (UniProt Q96EY8),0.005,–
HK2 (UniProt P52789),-0.024,-0.624
UniProt Q16512,-1.67,-0.422
APLP2 (UniProt Q06481),1.56,–
IPO9 (UniProt Q96P70),-1.63,0.567
VPS50 (UniProt Q96JG6),-0.749,-1.16
ABHD10 (UniProt Q9NUJ1),0.572,-0.716
UniProt O76093,–,-1.93
AP2A1 (UniProt O95782),-0.474,-0.386
MARS2 (UniProt Q96GW9),-0.129,–
MRPL48 (UniProt Q96GC5),0.376,-1.37
THNSL1 (UniProt Q8IYQ7),-0.0239,–
SDHAF3 (UniProt Q9NRP4),-0.0788,–

Target,melting temperature shift [1] [°C],melting temperature shift [2] [°C]
UniProt Q9Y250,0.159,-1.01
RPL7 (UniProt P18124),0.169,-0.503
UniProt Q86WH2,–,-2.39
NUBPL (UniProt Q8TB37),–,-2.27
ZBTB8OS (UniProt Q8IWT0),-0.759,-0.38
FAM21C (UniProt Q9Y4E1),2.82,0.332
BTAF1 (UniProt O14981),-0.412,-1.04
MARC1 (UniProt Q5VT66),-3.22,-4.7
ACOT8 (UniProt O14734),1.96,0.13
DDX54 (UniProt Q8TDD1),0.32,–
YTHDF3 (UniProt Q7Z739),-0.675,-0.0674
U2AF2 (UniProt P26368),0.866,-0.812
GALNT1 (UniProt Q10472),2.7,–
VPS45 (UniProt Q9NRW7),-0.831,-0.0211
UniProt Q96FB5,-2.13,–
UniProt O75334,–,-0.0913
CNDP2 (UniProt Q96KP4),-0.516,0.827
UniProt Q9BPX7,-1.18,1.76
MRPL43 (UniProt Q8N983),0.789,-0.966
MRM3 (UniProt Q9HC36),–,-0.626
UniProt Q8IVL0,–,-0.346
NUDT9 (UniProt Q9BW91),0.723,-0.783
CKAP5 (UniProt Q14008),-0.716,-1.02
UniProt Q53F19,1.09,-0.507

Target,melting temperature shift [1] [°C],melting temperature shift [2] [°C]
URGCP (UniProt Q8TCY9),-1.56,–
DNAJB6 (UniProt O75190),-1.34,-0.0239
SLC15A4 (UniProt Q8N697),–,-0.772
CMAS (UniProt Q8NFW8),0.0719,-0.795
ZFYVE19 (UniProt Q96K21),-1.4,-0.685
UniProt Q6WRI0,–,-0.847
UniProt Q92674,-2.06,0.0809
UniProt O60308,–,-2.18
UniProt O95319,–,-0.781
UniProt P01112,2.1,0.0305
TMEM70 (UniProt Q9BUB7),1.25,-1.66
UniProt Q96I45,3.14,–
CHTF18 (UniProt Q8WVB6),-1.66,–
UniProt Q9H4E7,-2.8,–
IARS (UniProt P41252),-1.09,-0.65
UniProt Q6UY01,-0.345,0.157
NQO1 (UniProt P15559),0.215,-0.361
KHSRP (UniProt Q92945),0.388,-2.63
UniProt Q9GZM8,–,-0.152
MAP4K5 (UniProt Q9Y4K4),-0.0915,-0.0104
DNAJC15 (UniProt Q9Y5T4),1.81,–
ZWILCH (UniProt Q9H900),-0.511,0.332
ITPR3 (UniProt Q14573),2.65,-0.822
UniProt Q5VYK3,-0.61,-0.446

# Not a retest: entries from further up.
Target,melting temperature shift [1] [°C],melting temperature shift [2] [°C]
ZFYVE19 (UniProt Q96K21),-1.4,-0.685
UniProt Q6WRI0,–,-0.847
UniProt Q92674,-2.06,0.0809

# Continued:

Target,melting temperature shift [1] [°C],melting temperature shift [2] [°C]
UBE2J2 (UniProt Q8N2K1),2.21,-0.347
AAR2 (UniProt Q9Y312),-0.134,-0.686
UniProt Q96G21,-0.345,–
UniProt O75161,–,-2.36
UniProt O95772,0.597,–
UniProt Q9UKR5,–,-1.22
SMARCC2 (UniProt Q8TAQ2),0.751,-0.429
UniProt Q9UM01,–,-1.8
METTL2A (UniProt Q96IZ6),–,0.777
EIF3G (UniProt O75821),-0.124,0.225
WWTR1 (UniProt Q9GZV5),0.142,-6.8
PHF3 (UniProt Q92576),0.988,0.507
MRPS27 (UniProt Q92552),-0.541,-1.39
UniProt P20591,0.957,-0.466
TNIK (UniProt Q9UKE5),2.84,-0.124
CASC4 (UniProt Q6P4E1),0.406,–
UniProt O00160,–,-1.2
UniProt A6QL63,–,-0.5
NIPSNAP3A (UniProt Q9UFN0),2.62,–
SIN3B (UniProt O75182),-0.0589,–
CPM (UniProt P14384),–,1.13
MYO1B (UniProt O43795),0.661,-0.335
